Patent US20210403576A1 (HELIXMITH, published 2021)
Results are given in words; binding and its absence hold for the method and conditions named. Some entries that bind do so weakly or less than the wild type.

By UniProt entry, the sequences of proteins in these tests, tags left out. Residues count along the entry.
UniProt P08581, residues 25-932: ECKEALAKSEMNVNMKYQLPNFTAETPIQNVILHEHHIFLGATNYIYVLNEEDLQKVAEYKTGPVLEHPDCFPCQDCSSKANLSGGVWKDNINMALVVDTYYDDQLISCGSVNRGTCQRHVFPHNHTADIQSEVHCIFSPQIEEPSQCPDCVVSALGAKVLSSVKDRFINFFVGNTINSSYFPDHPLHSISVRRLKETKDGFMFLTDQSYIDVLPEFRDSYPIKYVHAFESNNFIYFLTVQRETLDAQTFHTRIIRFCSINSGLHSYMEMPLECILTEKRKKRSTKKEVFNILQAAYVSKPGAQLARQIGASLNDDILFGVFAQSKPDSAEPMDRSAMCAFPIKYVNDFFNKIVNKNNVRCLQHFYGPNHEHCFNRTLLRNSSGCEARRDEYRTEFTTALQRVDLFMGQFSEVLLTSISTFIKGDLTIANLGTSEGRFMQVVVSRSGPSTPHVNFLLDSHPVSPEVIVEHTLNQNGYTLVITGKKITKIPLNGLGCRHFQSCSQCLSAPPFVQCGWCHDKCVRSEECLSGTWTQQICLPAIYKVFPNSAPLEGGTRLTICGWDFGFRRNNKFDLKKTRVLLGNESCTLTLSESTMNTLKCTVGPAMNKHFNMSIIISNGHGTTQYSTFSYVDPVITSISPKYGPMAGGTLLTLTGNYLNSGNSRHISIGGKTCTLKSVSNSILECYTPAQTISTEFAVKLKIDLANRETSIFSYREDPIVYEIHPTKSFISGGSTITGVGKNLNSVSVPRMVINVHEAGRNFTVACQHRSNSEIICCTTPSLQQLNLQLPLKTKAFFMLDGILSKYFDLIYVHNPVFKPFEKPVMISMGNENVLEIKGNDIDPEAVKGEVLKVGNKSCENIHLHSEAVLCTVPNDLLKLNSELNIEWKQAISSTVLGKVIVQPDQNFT

B1: VH5/Vk4 (antibody, IgG1, V domains shown)
VH: QVQLVQSGAEVKKPGSSVKVSCQGSGYSFPTHWITWVRQAPGQGLEWMGTIDPTDSYNFYGPSFQGRVTITADSSTSTAYMELSSLRSEDTAVYYCARDGNYYDSRGYYYDTFDMWGQGTLVTVSS
VL: EIQMTQSPGTLSLSPGERATLSCRASQGISTYLAWYQQKPGQAPRLLIYSASTLESGVPDRFSGSGSGTDFTLTISRLEPEDFATYYCQQADSFPLTFGGGTKVEIK
notes: Full IgG1/kappa expressed in HEK 293 EBNA cells
B2: VH4/Vk3 (antibody, IgG1, V domains shown)
VH: QVQLVQSGAEVKKPGSSVKVSCQGSGYSFPTHWITWVRQAPGQGLEWMGTIDPTDSYNFYGPSFQGRVTITADSSTSTAYMELSSLRSEDTAMYYCARDGNYYDSRGYYYDTFDMWGQGTLVTVSS
VL: DIQMTQSPGFLSLSPGERATLSCRASQGISTYLAWYQQKPGQAPRLLIYSASTLESGVPDRFSGSGSGTDFTLTISRLEPEDFATYYCQQADSFPLTFGGGTKVEIK
notes: as for B1
B3: VH4/Vk4 (antibody, IgG1, V domains shown)
VH: QVQLVQSGAEVKKPGSSVKVSCQGSGYSFPTHWITWVRQAPGQGLEWMGTIDPTDSYNFYGPSFQGRVTITADSSTSTAYMELSSLRSEDTAMYYCARDGNYYDSRGYYYDTFDMWGQGTLVTVSS
VL: EIQMTQSPGTLSLSPGERATLSCRASQGISTYLAWYQQKPGQAPRLLIYSASTLESGVPDRFSGSGSGTDFTLTISRLEPEDFATYYCQQADSFPLTFGGGTKVEIK
notes: as for B1
B4: VH4/Vk5 (antibody, IgG1, V domains shown)
VH: QVQLVQSGAEVKKPGSSVKVSCQGSGYSFPTHWITWVRQAPGQGLEWMGTIDPTDSYNFYGPSFQGRVTITADSSTSTAYMELSSLRSEDTAMYYCARDGNYYDSRGYYYDTFDMWGQGTLVTVSS
VL: EIVLTQSPGTLSLSPGERATLSCRASQGISTYLAWYQQKPGQAPRLLIYSASTLESGIPDRFSGSGSGTDFTLTISRLEPEDFATYYCQQADSFPLTFGGGTKVEIK
notes: as for B1
B5: VH5/Vk3 (antibody, IgG1, V domains shown)
VH: QVQLVQSGAEVKKPGSSVKVSCQGSGYSFPTHWITWVRQAPGQGLEWMGTIDPTDSYNFYGPSFQGRVTITADSSTSTAYMELSSLRSEDTAVYYCARDGNYYDSRGYYYDTFDMWGQGTLVTVSS
VL: DIQMTQSPGFLSLSPGERATLSCRASQGISTYLAWYQQKPGQAPRLLIYSASTLESGVPDRFSGSGSGTDFTLTISRLEPEDFATYYCQQADSFPLTFGGGTKVEIK
notes: as for B1
B6: VH5/Vk5 (antibody, IgG1, V domains shown)
VH: QVQLVQSGAEVKKPGSSVKVSCQGSGYSFPTHWITWVRQAPGQGLEWMGTIDPTDSYNFYGPSFQGRVTITADSSTSTAYMELSSLRSEDTAVYYCARDGNYYDSRGYYYDTFDMWGQGTLVTVSS
VL: EIVLTQSPGTLSLSPGERATLSCRASQGISTYLAWYQQKPGQAPRLLIYSASTLESGIPDRFSGSGSGTDFTLTISRLEPEDFATYYCQQADSFPLTFGGGTKVEIK
notes: as for B1
B7: VH6/Vk3 (antibody, IgG1, V domains shown)
VH: QVQLVQSGAEVKKPGSSVKVSCKASGYSFPTHWITWVRQAPGQGLEWMGTIDPTDSYNFYGPSFQGRVTITADKSTSTAYMELSSLRSEDTAVYYCARDGNYYDSRGYYYDTFDMWGQGTLVTVSS
VL: DIQMTQSPGFLSLSPGERATLSCRASQGISTYLAWYQQKPGQAPRLLIYSASTLESGVPDRFSGSGSGTDFTLTISRLEPEDFATYYCQQADSFPLTFGGGTKVEIK
notes: as for B1
B8: VH6/Vk4 (antibody, IgG1, V domains shown)
VH: QVQLVQSGAEVKKPGSSVKVSCKASGYSFPTHWITWVRQAPGQGLEWMGTIDPTDSYNFYGPSFQGRVTITADKSTSTAYMELSSLRSEDTAVYYCARDGNYYDSRGYYYDTFDMWGQGTLVTVSS
VL: EIQMTQSPGTLSLSPGERATLSCRASQGISTYLAWYQQKPGQAPRLLIYSASTLESGVPDRFSGSGSGTDFTLTISRLEPEDFATYYCQQADSFPLTFGGGTKVEIK
notes: as for B1
B9: VH6/Vk5 (antibody, IgG1, V domains shown)
VH: QVQLVQSGAEVKKPGSSVKVSCKASGYSFPTHWITWVRQAPGQGLEWMGTIDPTDSYNFYGPSFQGRVTITADKSTSTAYMELSSLRSEDTAVYYCARDGNYYDSRGYYYDTFDMWGQGTLVTVSS
VL: EIVLTQSPGTLSLSPGERATLSCRASQGISTYLAWYQQKPGQAPRLLIYSASTLESGIPDRFSGSGSGTDFTLTISRLEPEDFATYYCQQADSFPLTFGGGTKVEIK
notes: as for B1
B10: VH4/Vk2 (antibody, IgG1, V domains shown)
VH: QVQLVQSGAEVKKPGSSVKVSCQGSGYSFPTHWITWVRQAPGQGLEWMGTIDPTDSYNFYGPSFQGRVTITADSSTSTAYMELSSLRSEDTAMYYCARDGNYYDSRGYYYDTFDMWGQGTLVTVSS
VL: DIQMTQSPSSLSASVGDRVTITCRASQGISTYLAWYQQKPGKAPKLLIYSASTLESGVPSRFSGSGSGTDFTLTISSLQPEDFATYYCQQADSFPLTFGGGTKVEIK
notes: as for B1
B11: VH3/Vk2 (antibody, IgG1, V domains shown)
VH: QVQLVQSGAEVKKPGSSVKVSCQGSGYSFPTHWITWVRQAPGQGLEWMGTIDPTDSYNFYGPSFQGRVTITADSSTSTAYLQWSSLKASDTAMYYCARDGNYYDSRGYYYDTFDMWGQGTLVTVSS
VL: DIQMTQSPSSLSASVGDRVTITCRASQGISTYLAWYQQKPGKAPKLLIYSASTLESGVPSRFSGSGSGTDFTLTISSLQPEDFATYYCQQADSFPLTFGGGTKVEIK
notes: as for B1
B12: VH4/Vk0 (antibody, IgG1, V domains shown)
VH: QVQLVQSGAEVKKPGSSVKVSCQGSGYSFPTHWITWVRQAPGQGLEWMGTIDPTDSYNFYGPSFQGRVTITADSSTSTAYMELSSLRSEDTAMYYCARDGNYYDSRGYYYDTFDMWGQGTLVTVSS
VL: DIQMTQSPSFLSASVGDRVTITCRASQGISTYLAWYQQKPGTAPKLLIYSASTLESGVPSRFSGSGSGTDFTLTISSLQPEDSATYYCQQADSFPLTFGGGTKVEIK
notes: as for B1
B13: VH5/Vk0 (antibody, IgG1, V domains shown)
VH: QVQLVQSGAEVKKPGSSVKVSCQGSGYSFPTHWITWVRQAPGQGLEWMGTIDPTDSYNFYGPSFQGRVTITADSSTSTAYMELSSLRSEDTAVYYCARDGNYYDSRGYYYDTFDMWGQGTLVTVSS
VL: DIQMTQSPSFLSASVGDRVTITCRASQGISTYLAWYQQKPGTAPKLLIYSASTLESGVPSRFSGSGSGTDFTLTISSLQPEDSATYYCQQADSFPLTFGGGTKVEIK
notes: as for B1
B14: VH5/Vk2 (antibody, IgG1, V domains shown)
VH: QVQLVQSGAEVKKPGSSVKVSCQGSGYSFPTHWITWVRQAPGQGLEWMGTIDPTDSYNFYGPSFQGRVTITADSSTSTAYMELSSLRSEDTAVYYCARDGNYYDSRGYYYDTFDMWGQGTLVTVSS
VL: DIQMTQSPSSLSASVGDRVTITCRASQGISTYLAWYQQKPGKAPKLLIYSASTLESGVPSRFSGSGSGTDFTLTISSLQPEDFATYYCQQADSFPLTFGGGTKVEIK
notes: as for B1
B15: VH6/Vk0 (antibody, IgG1, V domains shown)
VH: QVQLVQSGAEVKKPGSSVKVSCKASGYSFPTHWITWVRQAPGQGLEWMGTIDPTDSYNFYGPSFQGRVTITADKSTSTAYMELSSLRSEDTAVYYCARDGNYYDSRGYYYDTFDMWGQGTLVTVSS
VL: DIQMTQSPSFLSASVGDRVTITCRASQGISTYLAWYQQKPGTAPKLLIYSASTLESGVPSRFSGSGSGTDFTLTISSLQPEDSATYYCQQADSFPLTFGGGTKVEIK
notes: as for B1
B16: VH6/Vk2 (antibody, IgG1, V domains shown)
VH: QVQLVQSGAEVKKPGSSVKVSCKASGYSFPTHWITWVRQAPGQGLEWMGTIDPTDSYNFYGPSFQGRVTITADKSTSTAYMELSSLRSEDTAVYYCARDGNYYDSRGYYYDTFDMWGQGTLVTVSS
VL: DIQMTQSPSSLSASVGDRVTITCRASQGISTYLAWYQQKPGKAPKLLIYSASTLESGVPSRFSGSGSGTDFTLTISSLQPEDFATYYCQQADSFPLTFGGGTKVEIK
notes: as for B1
B17: VH2/Vk2 (antibody, IgG1, V domains shown)
VH: EVQLVQSGAEVKKPGESLKISCKGSGYSFPTHWITWVRQMPGKGLEWMGTIDPTDSYNFYGPSFQGQVTISADKSISTAYLQWSSLKASDTAMYYCARDGNYYDSRGYYYDTFDMWGQGTLVTVSS
VL: DIQMTQSPSSLSASVGDRVTITCRASQGISTYLAWYQQKPGKAPKLLIYSASTLESGVPSRFSGSGSGTDFTLTISSLQPEDFATYYCQQADSFPLTFGGGTKVEIK
notes: as for B1
B18: VH0/Vk2 (antibody, IgG1, V domains shown)
VH: QVQLVQSGAEVKKPGESLRISCQGSGYSFPTHWITWVRQMPGKGLEWMGTIDPTDSYNFYGPSFQGHVTISADSSSSTAYLQWSSLKASDTAMYYCARDGNYYDSRGYYYDTFDMWGQGTLVTVSS
VL: DIQMTQSPSSLSASVGDRVTITCRASQGISTYLAWYQQKPGKAPKLLIYSASTLESGVPSRFSGSGSGTDFTLTISSLQPEDFATYYCQQADSFPLTFGGGTKVEIK
notes: as for B1
B19: VH0/Vk0 (antibody, IgG1, V domains shown)
VH: QVQLVQSGAEVKKPGESLRISCQGSGYSFPTHWITWVRQMPGKGLEWMGTIDPTDSYNFYGPSFQGHVTISADSSSSTAYLQWSSLKASDTAMYYCARDGNYYDSRGYYYDTFDMWGQGTLVTVSS
VL: DIQMTQSPSFLSASVGDRVTITCRASQGISTYLAWYQQKPGTAPKLLIYSASTLESGVPSRFSGSGSGTDFTLTISSLQPEDSATYYCQQADSFPLTFGGGTKVEIK
notes: Full IgG1/kappa with the variable domains of 1E4; also called 1E4 antibody variant including the constant domain where the residues were substituted
B20: VH2/Vk0 (antibody, IgG1, V domains shown)
VH: EVQLVQSGAEVKKPGESLKISCKGSGYSFPTHWITWVRQMPGKGLEWMGTIDPTDSYNFYGPSFQGQVTISADKSISTAYLQWSSLKASDTAMYYCARDGNYYDSRGYYYDTFDMWGQGTLVTVSS
VL: DIQMTQSPSFLSASVGDRVTITCRASQGISTYLAWYQQKPGTAPKLLIYSASTLESGVPSRFSGSGSGTDFTLTISSLQPEDSATYYCQQADSFPLTFGGGTKVEIK
notes: as for B1
B21: VH2/Vk5 (antibody, IgG1, V domains shown)
VH: EVQLVQSGAEVKKPGESLKISCKGSGYSFPTHWITWVRQMPGKGLEWMGTIDPTDSYNFYGPSFQGQVTISADKSISTAYLQWSSLKASDTAMYYCARDGNYYDSRGYYYDTFDMWGQGTLVTVSS
VL: EIVLTQSPGTLSLSPGERATLSCRASQGISTYLAWYQQKPGQAPRLLIYSASTLESGIPDRFSGSGSGTDFTLTISRLEPEDFATYYCQQADSFPLTFGGGTKVEIK
notes: as for B1

target: T1, human c-Met (Sino Biological) (human, UniProt P08581 25-932, limits assumed); experiment: SPR (Biacore T200)
T1 construct: Analyte in the Biacore assay; also called antigen (c-Met); printed as "human c-Met antibody (Sino Biological, Beijing, China)"

binding, binds:
B1
B2
B3
B4
B5
B6
B7
B8
B9
B10
B11
B12
B13
B14
B15
B16
B17
B18
B19
B20
B21
